These are yes or no findings as the source states them, for the method shown. In cells and extracts the contact can be indirect. Here binding means that the protein was enriched with, or labelled near, the bait; the list need not be complete.

The test deals with Myc-Cyr1 (C. albicans). The test is described as follows: affinity purification with mass spectrometry; SILAC: extract of GZY809 (Myc-Cyr1, heavy medium) and of control GZY808 (Myc epitope alone, light medium) on anti-Myc affinity gel, 4°C, 4 h; beads combined during washes; lysis buffer 50 mM Tris-HCl pH 7.4, 150 mM KCl, 1% NP-40; yeast growth conditions (GMM, 30°C, no serum); cutoff normalized H/L ratio 1.5:1.

B1: Snf1 (protein, UniProt P52497 1-620)
chain: MSEQAQPQASADQQQHQHNHHHHHHHHHHNENQSQQQVPIDPAANPANRIGRYQILKTLGEGSFGKVKLAQHLGTGQKVALKIINRKTLAKSDMQGRVEREISYLRLLRHPHIIKLYDVIKSKDEIIMVIEFAGKELFDYIVQRGKMPEDEARRFFQQIIAAVEYCHRHKIVHRDLKPENLLLDDQLNVKIADFGLSNIMTDGNFLKTSCGSPNYMPAPEVISGKLYAGPEVDVWSAGVILYVMLCGRLPFDDEFIPALFKKISNGVYTLPNYLSAGAKHLLTRMLVVNPLNRITIHEIMEDDWFKQDMPDYLLPPDLSKNKNSKIDVDEDVIRALSVTMGYDRDCKIVNVIEKANKQVAAGNSSSQQSKSSNEILDAYLLMKENHALVKDLKKSKSENIESFLSQSPPPSPFPNRGSTSSAPGVQQSLTYQTLATVPDLSTLPNSTIAILPTSLPSIHRAYMAETKQNGDPSQQHAPPPTKKSKTRWHFGIRSRSYPLDVMGEIYRALKNLGAEWAKPTEEELWTIRVRWKYDTSAQFECGSAPNLMKMQIQLFQLEPNNYLVSFKFSGWESAHGNAGTDSPQSHRQQDLDEVGSFSAYPFLHLATRLIMELAVNSQSG
With B1, the binding entry is “binds”.

B2: Cap1 (protein, UniProt Q5A6P9 1-545)
chain: MSTEESQFNVQGYNIITILKRLEAATSRLEDITIFQEEANKNHYGVDSLTEKGTPKSRTVESSEATSDGKSLESTSFATFSEAPVEKSKLIVEFENFVESYVHPLVETSKKIDSLVGESAQYFYEAFVEQGKFLELVLQSQQPDMTDPALAKALEPMNAKCTKINELKDSNRKSPFFNHLSTFSESNAVFYWIGIPTPVSYITDTKDTVKFWSDRVLKEYKTKDQVHVEWVKQTLSVFDELKNYVKEYHTTGVAWNPKGKPFAEVVSQQTESAAKNSSSASGSAGGAAPPPPPPPPPATFFDDTEKDSENPSPASGGINAVFAELNQGANITSGLKKVDKSEMTHKNPELRKQPPVAPKKPAPPKKPSSLSGGVSSAPVKKPAKKELIDGTKWIIQNFTKADISDLSPITIEVEMHQSVFIGNCSDVTIQLKGKANAVSVSETKNVALVIDSLISGVDVIKSYKFGIQVLGLVPMLSIDKSDEGTIYLSQESIDNDSQVFTSSTTALNINAPKENDDYEELAVPEQFVSKVVNGKLVTQIVEHAG
With B2, the binding entry is listed as “binds”.

B3: Ywp1 (protein, UniProt Q59Y31 22-511)
chain: QDVACLVDNQQVAVVDLDTGVCPFTIPASLAAFFTFVSLEEYNVQFYYTIVNNVRYNTDIRNAGKVINVPARNLYGAGAVPFFQVHLEKQLEANSTAAIRRRLMGETPIVKRDQIDDFIASIENTEGTALEGSTLEVVDYVPGSSSASPSGSASPSGSESGSGSDSATIRSTTVVSSSSCESSGDSAATATGANGESTVTEQNTVVVTITSCHNDACHATTVPATASIGVTTVHGTETIFTTYCPLSSYETVESTKVITITSCSENKCQETTVEATPSTATTVSEGVVTEYVTYCPVSSVETVASTKVITVVACDEHKCHETTAVATPTEVTTVVEGSTTHYVTYKPTGSGPTQGETYATNAITSEGTVYVPKTTAVTTHGSTFETVAYITVTKATPTKGGEQHQPGSPAGAATSAPGAPAPGASGAHASTANKVTVEAQATPGTLTPENTVAGGVNGEQVAVSAKTTISQTTVAKASGSGKAAISTFEG
As to B3, the binding result is “binds”.

B4: Hem15 (protein, UniProt Q59U72 1-386)
chain: MMFRSTFKPTCIARRGFFRFNSSNSSKPPTGIVFMNMGGPSKVEETYDFLLRLFSDGDLIPFGRFQNILAKFIAKRRTPKIEEHYREIGGGSPIRKWSEYQCKKVCEILDKTSPETAPHKPYVAFRYANPLTEETLNDMKKDGVTKAVAFSQYPQFSYSTSGSSMNELYRQTLIHDPERTIDWSFIDRWPQQPGLVKAFANNIKEKLAEFPPQDRDDIVILFSAHSLPMEIVNLGDSYPAEVAATVYKIMEELKFSNPYRLVWQSQVGPKPWLGGQTSKIIDKLEKRDDIKGIVLVPVAFTSDHIETLHELDIEILEDATNPHKIKRAESLNGNETFIEGLADLVKSHLKSGEKYSKQLELDCILGSERAQGTFKHPNEIFGNRKN
Turning to B4, the binding result is “binds”.

B5: Sln1 (protein, UniProt Q5A872 1-1373)
chain: MRRLKIGIRPQLIIIVCFASLFSLLILGIVTGIYFSANLKNLRLERLLVISQLKRTQVQQAIQYIAYQVMTVSEVDSLTVPLSNYRAGNNSKAVFSEAQNYLQQYVLTTDSFTAARLYDLDLQVVASSFDNMTLISESAQDVVYPLQPNRSMPPVLGTPSGLYFTGPIANNSDNFNSRYFMGITVPVLSNSSIILSQPSISGYLTIVAAAESIRSALNSTSEDDYQAMAVQPVYGDPQKGIDNLSQNAYNGDNEVIGFKLVFPVENSLLEAGTIYNINSSSSMKTALASNSGTATGVKSFFGKKVAIGFSRISVQDNLNWSIVIVQSNSVFNGPANKLRKITIGVVIGIGAFMCFVTFPLAVWFIRPITKLKEATEAITKYKKEKLNSVNSNSPTSGSGSGSGSGSGSRANSDSSADQSLSLDTGKRNSINSSSFSSSYSTGIRLPARIPRSKKIFKDELTELSEAFNIMTEELDKQYTHLEDRVKLRTKELEASKIQAEAANEAKTVFIANISHELRTPLNGILGMTSIAMEEEDPNVIHDSLKLIHRSGELLLHILTELLTYSKNTLNRSKLEKSNFQILEIVYQVRSIFNKLAHDQRVNFKILVKPNIFRKLIIYGDSNRIIQIVMNLVSNSLKFTPVDGSVSVSFKLLGEYDHERSKKLDYKKVCILNDSSSSTVAVPPPTPPSDTKPNPKPKSTPTPKPDPTRSHLVDHNNRSANTTSPLTPVRKPTNQTKNKSITNNVTKQNMKIRKKKKTNKNLHNNNNNNKNDNSDFLMNRRLSGSHKFNNTNDEELSPTAIEKNIDKYLTSSADSDNISVTTLSTVQYETTIFESQFKSKPLPALPVDAKPQVSGKIDENDVNDEDPSGGSIKDDDSEDTINEKQGISSSPSSSSSSNEKQENSPRSNDSTTVTVTRPRHNMMPSAQDFKSYPTFDKKPEYDSNMSNNEIVKNNRVYRIRNMYQPKVWVIQIEVTDTGPGIEPALQEKVFEPFVQGDQTLSRSYGGTGLGLSICRQLATMMHGTLTLKSTIGKGSTFTLTLPLPQTGEIMVPPEDMAEFCEDEFNPAAKINRKVAFEDGDIDTESQQQENPSSEEDTQGDRNVQSSTSSSPPNSSSTDSALPASDSSDIGGTNKSKTTSHGNNKNINAKKRIITNSSASSTKGTKRHTNNDGGGGVNGNHSDDNKDLTLTIDKPSLFTRGSTGTANSGTTSSHSDKKILYPTPTTTTTTTTTTDHTTVLDDISHLRVLVAEDNSVNQEVISRMLKQEGITNLTMACNGAKAIDFVKESIENNENFDLIFMDVQMPEVDGLKATKMIRKNLQYNKPIIALTAFADESNVKECLNSGMSGFITKPISKTNIKKVLVEFLSNEVVTS
With B5, the binding result is reported as “binds”.

B6: Pan1 (protein, UniProt Q5AHB1 1-1396)
chain: MYNPYQQQQQGMGYNPQQQTGYGYNNYQMPQQPQFNQQPMYPQATGFVPQQPNLYGSNFQTSGGSGMAPQQTGFSQQQTMQPQQTGYIQTQPTGFGGTAPIVTENSELKIPSIRLSFISAEDQKKFEHLFRTAVPKGEQSISGDSASGILLRSGLSAVTLAEIWNLSDIDKTGSLLFPEFALSLHLCSMAKRGEPLPGILPEKWLNEVRSFVDQINFTVPDDPSKILANTPFANFAPKKESDWLAPQSTGYLQNQSAPPMTSFQPQVTGFGGQGLVSQATGGVPMPSTTFGNAAGLTAQRTGGGTLIPLQPQQTAGLIPAQKTGPLNPQTTGFNQQSLQQQRTGGLPQQLTGYQGPPQGQGQQLQQQRTGGFPQVQSQPTGGFVPQTSFQQPQLVSQRTGPMQAQPTGSLQAQPTGRPGEWGFVSMPTGGIPGLNAMQQHFLPNNQLPTSNLHSAMDNKLKENVTWAITKQEKQIYDGLFQAWDNQKKGYVDSNVALNVFTKSGLSRSDLESIWTLVDTDDTGKLNKNQFAVAMHLIYRRLNGYDIPLRLPPELIPPADRTLKDTMDSLKNSLKGGVNNKPTKPPKPQSKPDGTRFKNDDNNFGYVSNVRHRRKSTSDESHKSSVKSSSDYDLSIEDMKKLIHEKRILLDALDTEDQANNYSRSSSSMHEKQIIENLKKEIMAVQTKLDERGNDGPSSDERNKLLATLDHLTRDVVPRLISDIHKVNQEISRKKAEVFKLELLKKNPSWNPEDDESQIQGTGPNGEVTDYDRIKYQSRQKLKQRMAALTGKSTGGNSDLDLELKQATEKAQDEASRQSEMIQDIAAGIKTMEDECAAKLSSSVTEDVGHEKWEQGKGISSEVAKFVKELEAFSKEQRRNIAKSQKQEQTREPLAKQQTNASLVSDSGAAKSAYATPEERAAYIKQQAEKRMNERLAKLGITRKSKSTEQKPPVESKSVSNHSPVPDSEVKSVTRNANEVEVQKPKPDSQPVSKNREPAEQPNSKADTNSVGSQNVVSNTNDDTSGDDDDEEYKAILKQKQEMEARERERKLRKQKAKEERLAKIKKEMEEMKKREMEESQDEEEEEAKQVTSVHVSRAQSSNANSNVIPQQETATENVNTVSQPTSTDTAKQSYHPHESNPFSKMNNNTSQNSTVTNTGTNPFFKSTSQETKIDPHKAEAQRASQRGVASSGGWSDSEEEESEEESPNRAGAAKLASLLFGGMPQPPTTSSSSLNNDAEKVSEQEHENAKQVASTPLSNDDNGKTDSGPSGFAGENESSFSQAPPIPVDAPPAPNSIPPPPPPPPQFSNEAPPVPDSIPPPPPPPSVPSTVPALPDSMPPPPPPPPPPAAPNNTSSSQQASGAPNIGALLGQITGGASLRKVETKVSSGATVGRVL
Take B6: the binding result is on record as “binds”.

B7: Mp65 (protein, UniProt Q59XX2 33-378)
chain: AVHVVTTTNVVVVTIGNGDQTTTFAAPSVAAESSVSVSVNTEPPQNHPTTTQDVASASTYPSSTDGSAASSSAAASSSSQAGSEPSGGVGSGGAKGITYSPYSDNGGCKSESQIASEIAQLSGFDVIRLYGVDCSQVEAVLKAKTSSQKIFAGIFDVSSITSGIESLAEAVKSCGSWDDIYTVSIGNELVNAGSATPSQIKAYVEEGRKALKAAGYTGPVVSVDTFIAVINNPDLCDYSDYMAVNAHAFFDGHVVAENSGAWVLQQIQRVWTACGGKKNVLITETGWPSRGDSNGVAVPSKSNQQAAISSIKSSCGASAILFTAFNDLWKADGPYNAEKYWGIYSN
For B7, the binding entry is “binds”.

B8: Rim20 (protein, UniProt Q9UW12 1-785)
chain: MNTNLLFIPLKQSSVLDLGDELRQVITNNYFQPASSFNSDLIYITQLRNQVAQIKNVNDELGKTSQDDSILLEYLQVLNTLQNKFSDDCVEFAWFDTLAYGPQGPYRYRSLKIEKLNVIYQIGSLYSQIAISESRHTDIGLKRACHYFQLSAGCFMFINNFLIETIKNKNDPLVLSIPLSMQSSTIQCLEYLMLAQAQETIWQKAINNNSMKDSVVARLSIQTSEYYSKALDFGNSSDLIKLEWINHMKVKKLHFLAAAHLRSSTIAADSFQYGEQVAHLRVASQAVDQALKSKKYVNSLVLEDLQGLADVIKVRLRTAEKDNDLVYLKIVPQEKELKTIIGVSMVKSIIPEAFEQKPESNTEIFKELLPYVIIHVAQAMRERQDEYVQTKFHTPISSLNNMLVKFLIDRDLPSSIDSIQQPENIPDSVIHHSQEILKTGGVDFIDKAFKELDKLKLECNHLLQECETRIDLDRSEDDMLRRKQGSTRWTRKSTDDAAQELIKKVDKMKQYLLQANNGDGFVLKKFYDIKPALDVYSSGYKALSQYIPNSQYIELPEQLSIVISDLRSCLARANTLESERKEFLQTLEIRSRDNSILPKLITEYNSNRSKYQTENGEFNFNAFESVYEKHMKLFDSDIKYIARTRDSQMTLEHEIDSINQKFVQEFKSLQNSSNEKRQQVLQYLETAYEKFLEIINNLTEGSKFYTDFIEKGSAVLQECEEYLYRRRVESRDLELAISNSFQQQQQVQEQNEQLSVPRNYSNDKLISPKTSKPGLWNPNSDIQFS
Turning to B8, the binding result is “binds”.

The values are drawn from PMC9769623.
